PubChem BioAssay AID1508597 – Cure First, 2020
Test: 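Knock-downs altering ovarian cancer cell survival with or without PARP inhibitor rucaparib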 (primary screen). Cells: human ovarian carcinoma lines grown from tumours: OCI-P5x (papillary serous) and OCI-C5x (clear cell). Knock-down reagent: siRNA pool against human genes, 1.25 pmol siRNA per well. Time to read-out: 72 h or 96 h, depending on the cell culture. Challenge: rucaparib 20 µM (about IC30) or vehicle, present until read-out. Rucaparib or vehicle: Rucaparib. Cell line: OCI-P5x (serous). Read-out: 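ATP luminescence measured at 72 or 96 h according to the culture, then normalised and expressed as percent viability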. Direction: viability, normalised: higher = more viable cells remaining. Rule for the call: 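a well counts as a hit if its normalised viability is under 80 percent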. Calls: active = viability under 80%; inactive = viability 80% or more.
This is an unselected part of the about 2,100 reagents, under one of the conditions tested. 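Calls flag viability under 80% in either arm, not effects specific to rucaparib; the reference for percent is not stated.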 Reagents against one gene are numbered here. Some reagents were tested in more than one well and are listed for each. Reagent sequences are not shown. Not given: the 100% reference.

gene | reagent | technical replicate | viability, normalised (%) | Outcome
AURKC (aurora kinase C) | 1 | 1 | 95.7 | inactive
AURKC (aurora kinase C) | 1 | 1 | 58 | active
AURKC (aurora kinase C) | 1 | 2 | 76.2 | active
AURKC (aurora kinase C) | 1 | 2 | 57.8 | active
AURKC (aurora kinase C) | 1 | 3 | 69.7 | active
AURKC (aurora kinase C) | 1 | 3 | 88.2 | inactive
PLCG1 (phospholipase C gamma 1) | 1 | 1 | 60.6 | active
PLCG1 (phospholipase C gamma 1) | 1 | 2 | 63.1 | active
PLCG1 (phospholipase C gamma 1) | 1 | 3 | 70.3 | active
RYK (receptor like tyrosine kinase) | 1 | 1 | 88.6 | inactive
RYK (receptor like tyrosine kinase) | 1 | 2 | 68.1 | active
RYK (receptor like tyrosine kinase) | 1 | 3 | 70.6 | active
ERN1 (endoplasmic reticulum to nucleus signaling 1) | 1 | 1 | 65.4 | active
ERN1 (endoplasmic reticulum to nucleus signaling 1) | 1 | 2 | 63.4 | active
ERN1 (endoplasmic reticulum to nucleus signaling 1) | 1 | 3 | 67 | active
UPF1 (UPF1 RNA helicase and ATPase) | 1 | 1 | 63.8 | active
UPF1 (UPF1 RNA helicase and ATPase) | 1 | 2 | 70.3 | active
UPF1 (UPF1 RNA helicase and ATPase) | 1 | 3 | 47.5 | active
MECOM (MDS1 and EVI1 complex locus) | 1 | 1 | 63.5 | active
MECOM (MDS1 and EVI1 complex locus) | 1 | 2 | 84.5 | inactive
MECOM (MDS1 and EVI1 complex locus) | 1 | 3 | 85 | inactive
MECOM (MDS1 and EVI1 complex locus) | 2 | 1 | 54.9 | active
MECOM (MDS1 and EVI1 complex locus) | 2 | 2 | 49.3 | active
MECOM (MDS1 and EVI1 complex locus) | 2 | 3 | 53.7 | active

Already shown: 8 of the entries above.
gene | reagent | technical replicate | viability, normalised (%) | Outcome
RYK (receptor like tyrosine kinase) | 1 | 2 | 68.1 | active
RYK (receptor like tyrosine kinase) | 1 | 3 | 70.6 | active
ERN1 (endoplasmic reticulum to nucleus signaling 1) | 1 | 1 | 65.4 | active
ERN1 (endoplasmic reticulum to nucleus signaling 1) | 1 | 2 | 63.4 | active
ERN1 (endoplasmic reticulum to nucleus signaling 1) | 1 | 3 | 67 | active
UPF1 (UPF1 RNA helicase and ATPase) | 1 | 1 | 63.8 | active
UPF1 (UPF1 RNA helicase and ATPase) | 1 | 2 | 70.3 | active
UPF1 (UPF1 RNA helicase and ATPase) | 1 | 3 | 47.5 | active

Continued.
gene | reagent | technical replicate | viability, normalised (%) | Outcome
RAD54L (RAD54 like) | 1 | 1 | 37.5 | active
RAD54L (RAD54 like) | 1 | 1 | 67.5 | active
RAD54L (RAD54 like) | 1 | 2 | 41.9 | active
RAD54L (RAD54 like) | 1 | 2 | 79.1 | active
RAD54L (RAD54 like) | 1 | 3 | 71.9 | active
RAD54L (RAD54 like) | 1 | 3 | 41.2 | active
CHEK1 (checkpoint kinase 1) | 1 | 1 | 66.5 | active
CHEK1 (checkpoint kinase 1) | 1 | 1 | 50.9 | active
CHEK1 (checkpoint kinase 1) | 1 | 2 | 38.2 | active
CHEK1 (checkpoint kinase 1) | 1 | 2 | 59.6 | active
CHEK1 (checkpoint kinase 1) | 1 | 3 | 60.5 | active
CHEK1 (checkpoint kinase 1) | 1 | 3 | 52.4 | active
CAMK4 (calcium/calmodulin dependent protein kinase IV) | 1 | 1 | 110 | inactive
CAMK4 (calcium/calmodulin dependent protein kinase IV) | 1 | 2 | 99.8 | inactive
CAMK4 (calcium/calmodulin dependent protein kinase IV) | 1 | 3 | 98.2 | inactive
DNAJC1 (DnaJ heat shock protein family (Hsp40) member C1) | 1 | 1 | 64 | active
DNAJC1 (DnaJ heat shock protein family (Hsp40) member C1) | 1 | 2 | 80.9 | inactive
DNAJC1 (DnaJ heat shock protein family (Hsp40) member C1) | 1 | 3 | 69.7 | active
CXXC1 (CXXC finger protein 1) | 1 | 1 | 48.6 | active
CXXC1 (CXXC finger protein 1) | 1 | 1 | 76.7 | active
CXXC1 (CXXC finger protein 1) | 1 | 2 | 62.4 | active
CXXC1 (CXXC finger protein 1) | 1 | 2 | 72.6 | active
CXXC1 (CXXC finger protein 1) | 1 | 3 | 58.1 | active
CXXC1 (CXXC finger protein 1) | 1 | 3 | 80.7 | inactive
HNF1A (HNF1 homeobox A) | 1 | 1 | 47.1 | active
HNF1A (HNF1 homeobox A) | 1 | 2 | 48.6 | active
HNF1A (HNF1 homeobox A) | 1 | 3 | 51.4 | active
DDX6 (DEAD-box helicase 6) | 1 | 1 | 62.2 | active
DDX6 (DEAD-box helicase 6) | 1 | 2 | 66.2 | active
DDX6 (DEAD-box helicase 6) | 1 | 3 | 68.7 | active
MYB (MYB proto-oncogene, transcription factor) | 1 | 1 | 47.4 | active
MYB (MYB proto-oncogene, transcription factor) | 1 | 2 | 60.3 | active
MYB (MYB proto-oncogene, transcription factor) | 1 | 3 | 62.2 | active
